Test results taken from PubChem BioAssay AID2685 (National Center for Advancing Translational Sciences (NCATS), 2010).
The list shows a part of the results. Shown are side measurements of this screen, not its main read-out; they come without a call. Compounds called inactive in the main read-out are mostly missing here. Potencies come from curve fits of mixed quality, noted in brackets.

Experiment: qHTS Assay for Lipid Storage Modulators in Drosophila S3 Cells;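 on cell number change: cells counted by Cell Tracker Red CMTPX staining in the red channel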
Settings: BODIPY lipid droplet fluorescence, 18-24 h; for cell number change: measured here: cell count max response, cells fed with added oleic acid
Method in brief: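 Drosophila S3 cells loaded with oleic acid (400 uM, as added) and compounds at several concentrations; lipid droplets imaged by 488-nm laser-scanning cytometry, 500–530 nm intensity and object ratio to cell channel. Percent activity normalized to 20 uM Triacsin C.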

[1] = measured here: cell number channel AC50, cells fed with added oleic acid
[2] = measured here: lipid fluorescence (Fed channel) AC50, cells fed with added oleic acid

| Compound | cell number change [%] | AC50 [1] | AC50 [2] |
| --- | --- | --- | --- |
| O=C(COC(=O)CCc1nc2ccccc2s1)Nc1nc(-c2ccccc2)cs1 | -48.6 | 29.1 µM [falling, partial curve, poor fit] | 6.51 µM [falling, partial curve] |
| CCOc1ncccc1C(=O)Nc1nnc(C(CC)CC)s1 | – | 0.00461 µM [falling, full curve, poor fit] | – |
| C=CCN(CC=C)S(=O)(=O)c1ccc(NC(=S)NC(=O)/C=C/c2ccc(C)cc2)cc1 | – | 0.366 µM [rising, full curve, poor fit] | 20.6 µM [rising, single point] |
| CCCCN(Cc1nc2ccccc2c(=O)[nH]1)C(=O)CN1C(=O)NC2(CCCCC2)C1=O | 1.71 | – | 32.6 µM [rising, single point] |
| COc1cc(Br)c(/C=C/c2ccc3cccc(O)c3n2)cc1OC | -11.7 | – | 18.4 µM [falling, single point] |
| Cc1cccc(NC(=O)c2cccc(NS(=O)(=O)c3ccc(Cl)cc3)c2)c1 | -0.959 | – | – |
| Cc1cc(NC(=O)c2cnn3cccnc23)n(-c2ccccc2)n1 | – | 1.3 µM [rising, full curve] | 0.58 µM [rising, single point] |
| O=C(CSCc1ccc(Cl)cc1)Nc1ccc(S(=O)(=O)N2CCOCC2)cc1 | -28.2 | – | 5.8 µM [falling, partial curve] |
| CCOC(=O)c1cc(-c2ccccc2)nc2c1c(C)nn2-c1ccccn1 | 10.4 | 0.146 µM [rising, full curve] | 0.411 µM [rising, partial curve, poor fit] |
| C=CCn1c(O)c(CN2CCOCC2)c(C)c(C#N)c1=O | 30.4 | 1.64 µM [rising, single point] | 29.1 µM [falling, single point] |
| O=C(NN1CC(=O)N(c2cc(Cl)cc(Cl)c2)CC1=O)c1cccs1 | -42.4 | 16.4 µM [falling, partial curve] | 0.651 µM [falling, single point] |
| Cc1ccc(Cn2c(-n3nc(C)cc3C)nc3c2c(=O)[nH]c(=O)n3C)cc1 | – | 0.00461 µM [rising, full curve, poor fit] | – |
| O=C(NCc1ccco1)c1ccc2ccccc2c1 | – | – | 2.31 µM [falling, partial curve] |
| COc1ccccc1NC(=O)CSc1ccc(-c2ccco2)nn1 | 9.25 | – | 0.517 µM [rising, full curve, poor fit] |
| [O-][n+]1ccccc1SCc1ccccc1 | 2.97 | – | 0.731 µM [falling, full curve] |
| O=C(O)CSCC(=O)Nc1cccc(C(F)(F)F)c1 | -35.1 | 0.731 µM [falling, full curve] | 3.66 µM [falling, full curve] |
| COc1ccc(OC)c(-c2csc(NC(=O)CSc3ccc([N+](=O)[O-])cc3)n2)c1 | -6.26 | – | 9.2 µM [rising, partial curve] |
| S=C(Nc1cccc(Cl)c1)NC1CCCCC1 | 8.97 | – | 2.31 µM [rising, partial curve] |

Record cards, from the list above. Order of values: cell number change [%]	AC50 [1]	AC50 [2]
Cc1cc(NC(=O)c2cnn3cccnc23)n(-c2ccccc2)n1 is listed with –	1.3 µM [rising, full curve]	0.58 µM [rising, single point]
Cc1cccc(NC(=O)c2cccc(NS(=O)(=O)c3ccc(Cl)cc3)c2)c1 is listed with -0.959	–	–

The results go on.

| Compound | cell number change [%] | AC50 [1] | AC50 [2] |
| --- | --- | --- | --- |
| c1cncc(-c2nc(N3CCOCC3)c3c4c(sc3n2)CCC4)c1 | 36.6 | 0.116 µM [rising, full curve, poor fit] | 11.6 µM [rising, partial curve, poor fit] |
| Cn1c(-c2ccncc2)nc2ccccc21 | 10.6 | – | – |
| O=C(NCc1cccnc1)C1CCCCN1S(=O)(=O)c1ccc(F)cc1 (centres undefined) | -25.6 | – | 32.6 µM [falling, single point] |
| Cc1ccc(OCC(=O)N/N=C/c2cc([N+](=O)[O-])ccc2N2CCCCC2)cc1 | 6.3 | – | 1.46 µM [rising, full curve] |
| CN(C)CCN(C(=O)c1ccc2c(c1)OCCO2)c1nc2cc3c(cc2s1)OCO3 | 41.6 | 4.61 µM [rising, partial curve] | 2.31 µM [rising, full curve] |
| N#Cc1cnc(NN)nc1 | -4.69 | – | – |
| O=[N+]([O-])c1cc([N+](=O)[O-])c2c(=Nc3ccccc3)n(-c3ccccc3)n(O)c2c1 | -27.7 | – | 0.116 µM [falling, full curve] |
| CCC(C)NC(=O)CSC1=Nc2ccccc2C2=NC(CC(=O)NCc3ccc(F)cc3)C(=O)N12 (centres undefined) | 2.06 | – | 0.146 µM [rising, full curve] |
| CCN1C(=O)[C@H]2[C@H]3[C@H](O)[C@H](O)C/C(=N\OC[C@@H](C)[C@H](OCc4ccccc4)C(C)C)[C@@H]3CC[C@H]2C1=O | -46.9 | 29.1 µM [falling, single point] | 29.1 µM [falling, single point] |
| COc1ccc(NC(=O)Nc2cc3oc4ccccc4c3cc2OC)cc1 | -36.8 | 7.31 µM [falling, full curve] | 7.31 µM [falling, partial curve, poor fit] |
| O=C(CSc1ccc2nnc(-c3ccccc3)n2n1)NCc1ccc2c(c1)OCO2 | – | 2.59 µM [rising, partial curve, poor fit] | – |
| CCC(OC(=O)c1ccco1)C(=O)NCc1ccco1 (centres undefined) | -29.1 | 0.184 µM [falling, full curve, poor fit] | 5.8 µM [falling, single point] |
| COC(=O)c1cc(NC(=O)CC2CCCC2)cc(C(=O)OC)c1 | -16.7 | 0.00517 µM [falling, full curve, poor fit] | – |
| Cc1sc2nc(COC(=O)c3c(F)cccc3F)[nH]c(=O)c2c1C | 22.6 | – | 20.6 µM [rising, single point] |
| CS(=O)(=O)Nc1ccc(-c2cc(/C=C3\SC(N)=NC3=O)c[nH]c2=O)cc1 | 24 | – | 29.1 µM [rising, single point] |
| COc1cc(C2=NC(CO)(CO)CO2)cc(OC)c1OC | -29 | – | 25.9 µM [falling, single point] |
| C/C(=N\Nc1ccc([N+](=O)[O-])cc1)c1ccc(C#N)cc1 | 14.7 | 6.51 µM [rising, single point] | 2.91 µM [rising, partial curve, poor fit] |
